The values that follow come from the supplement of paper PMC6411743.

± gives the standard deviation of the averaged measurements. This is a selection; strong and weak results do not stand in their true shares.

Holding throughout (assay): NP40-soluble protein abundance relative to vehicle (solubility fold change) (ratio); higher = more soluble protein in presence of AMP-PNP
In assay [1] the target is T1, A6NMH8 and related entries (UniProt P60033).
T1 sequence (whole entry): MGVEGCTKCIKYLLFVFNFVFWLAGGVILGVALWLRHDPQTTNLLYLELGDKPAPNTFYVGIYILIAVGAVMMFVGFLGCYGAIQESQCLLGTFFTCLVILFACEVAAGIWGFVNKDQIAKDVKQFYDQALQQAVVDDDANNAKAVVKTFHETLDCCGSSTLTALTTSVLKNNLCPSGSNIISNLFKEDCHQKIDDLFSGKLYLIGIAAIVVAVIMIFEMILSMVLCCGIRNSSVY
The essentials:
(§1)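 Each value is a fold change relative to the detergent-processed vehicle, calculated per replicate from vsn-normalised intensities. Jurkat crude lysate received eight concentrations (0.1 to 10 mM) for 10 min at room temperature and 3 min at 37 °C, then was solubilised in 0.8% NP40 with benzonase (60 min, 4 °C). The ultracentrifuged supernatant was TMT-labelled and run by LC-MS/MS in three independent experiments.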

Assay [2] concerns the target T2, A8K878 and related entries (UniProt P55145).
T2 sequence (whole entry): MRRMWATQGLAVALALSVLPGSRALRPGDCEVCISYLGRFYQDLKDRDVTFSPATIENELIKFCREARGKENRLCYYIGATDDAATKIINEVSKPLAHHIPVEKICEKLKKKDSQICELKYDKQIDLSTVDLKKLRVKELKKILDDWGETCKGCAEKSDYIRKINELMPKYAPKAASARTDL
The essentials:
as §1

Assay [3] concerns the target T3, B1AKJ5 and related entries (UniProt O43847).
T3 sequence (whole entry): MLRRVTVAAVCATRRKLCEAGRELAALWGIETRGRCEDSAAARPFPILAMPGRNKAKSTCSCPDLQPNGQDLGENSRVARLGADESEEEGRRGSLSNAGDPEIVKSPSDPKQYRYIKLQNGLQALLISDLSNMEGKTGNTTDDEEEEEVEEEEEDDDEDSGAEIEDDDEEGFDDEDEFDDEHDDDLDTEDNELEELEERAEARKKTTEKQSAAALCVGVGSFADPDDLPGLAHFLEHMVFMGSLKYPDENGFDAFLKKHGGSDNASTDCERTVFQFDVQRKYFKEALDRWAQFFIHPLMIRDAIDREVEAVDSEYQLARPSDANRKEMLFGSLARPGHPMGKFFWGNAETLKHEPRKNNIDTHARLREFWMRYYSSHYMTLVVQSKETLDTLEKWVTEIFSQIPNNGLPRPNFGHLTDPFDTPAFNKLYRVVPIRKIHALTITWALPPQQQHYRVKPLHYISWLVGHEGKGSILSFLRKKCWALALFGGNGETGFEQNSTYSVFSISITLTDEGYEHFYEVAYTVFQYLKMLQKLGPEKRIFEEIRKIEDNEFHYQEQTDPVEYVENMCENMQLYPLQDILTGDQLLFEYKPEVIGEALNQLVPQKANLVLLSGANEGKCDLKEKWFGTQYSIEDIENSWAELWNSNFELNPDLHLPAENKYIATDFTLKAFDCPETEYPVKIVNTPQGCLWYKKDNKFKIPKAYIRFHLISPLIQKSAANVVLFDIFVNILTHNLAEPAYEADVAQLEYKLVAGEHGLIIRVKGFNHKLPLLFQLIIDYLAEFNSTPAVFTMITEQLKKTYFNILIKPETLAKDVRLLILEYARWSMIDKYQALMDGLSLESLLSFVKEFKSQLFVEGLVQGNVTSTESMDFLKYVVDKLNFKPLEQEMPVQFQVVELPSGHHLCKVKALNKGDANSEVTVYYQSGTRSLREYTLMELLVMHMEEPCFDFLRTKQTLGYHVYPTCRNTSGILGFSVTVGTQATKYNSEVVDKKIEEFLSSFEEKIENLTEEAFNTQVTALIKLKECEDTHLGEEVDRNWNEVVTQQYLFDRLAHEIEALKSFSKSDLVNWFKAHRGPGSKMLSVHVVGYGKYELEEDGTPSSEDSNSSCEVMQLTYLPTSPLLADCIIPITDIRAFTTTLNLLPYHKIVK
The essentials: as §1

Assay [4] deals with T4, B4DH95 and related entries (UniProt Q6P9H5).
T4 sequence (whole entry): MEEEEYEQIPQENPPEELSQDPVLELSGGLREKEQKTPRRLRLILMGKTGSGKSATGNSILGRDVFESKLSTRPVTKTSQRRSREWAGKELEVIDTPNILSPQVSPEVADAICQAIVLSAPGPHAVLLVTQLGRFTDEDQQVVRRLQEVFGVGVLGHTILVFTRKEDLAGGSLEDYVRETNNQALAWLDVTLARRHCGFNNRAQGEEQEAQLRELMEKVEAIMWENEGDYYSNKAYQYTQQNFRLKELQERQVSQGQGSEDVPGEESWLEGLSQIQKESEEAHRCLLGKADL
The essentials:
as §1

Consider `Nc1ncnc2c1ncn2[C@@H]1O[C@H](COP(=O)(O)OP(=O)(O)NP(=O)(O)O)[C@@H](O)[C@H]1O` [adenylyl imidodiphosphate], for which the NP40-soluble protein abundance came to 0.988 ± 0.032 in assay [1] (concentration: 1mM); 0.985 ± 0.02 in assay [1] (concentration: 2mM); 0.971 ± 0.043 in assay [1] (concentration: 4mM); 0.964 ± 0.012 in assay [1] (concentration: 6mM); 0.982 ± 0.015 in assay [1] (concentration: 8mM); 0.939 ± 0.03 in assay [1] (concentration: 10mM). Further, the NP40-soluble protein abundance in assay [2] (concentration: 1mM) was determined as 0.971 ± 0.057; in assay [2] (concentration: 2mM), 1.05 ± 0.064; in assay [2] (concentration: 4mM), 0.932 ± 0.076; in assay [2] (concentration: 6mM), 0.942 ± 0.046; in assay [2] (concentration: 8mM), 0.919 ± 0.022; in assay [2] (concentration: 10mM) it was 0.889 ± 0.087. The NP40-soluble protein abundance in assay [3] (concentration: 1mM) stood at 1 ± 0.016; in assay [3] (concentration: 2mM), 0.972 ± 0.013; in assay [3] (concentration: 4mM), 0.9652 ± 0.0017; in assay [3] (concentration: 6mM), 0.978 ± 0.014; in assay [3] (concentration: 8mM), 0.9862 ± 0.0089; in assay [3] (concentration: 10mM) it was 0.966 ± 0.051. Besides, the NP40-soluble protein abundance in assay [4] (concentration: 1mM) was found to be 0.982 ± 0.023; in assay [4] (concentration: 2mM), 0.941 ± 0.031; in assay [4] (concentration: 4mM), 0.991 ± 0.026; in assay [4] (concentration: 6mM), 1.01 ± 0.069.
